Data from the supplement of paper PMC10849652.
The list shows a part of the results.

Amino acid sequences for entries named in this document (tags omitted). A change or cut given only in a name is not applied to a line headed by its entry.
UniProt P60981: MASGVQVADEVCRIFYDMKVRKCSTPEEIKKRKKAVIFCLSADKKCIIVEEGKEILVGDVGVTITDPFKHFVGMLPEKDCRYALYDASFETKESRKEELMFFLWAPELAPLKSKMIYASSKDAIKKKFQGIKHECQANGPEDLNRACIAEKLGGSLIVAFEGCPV
UniProt Q9BZ29: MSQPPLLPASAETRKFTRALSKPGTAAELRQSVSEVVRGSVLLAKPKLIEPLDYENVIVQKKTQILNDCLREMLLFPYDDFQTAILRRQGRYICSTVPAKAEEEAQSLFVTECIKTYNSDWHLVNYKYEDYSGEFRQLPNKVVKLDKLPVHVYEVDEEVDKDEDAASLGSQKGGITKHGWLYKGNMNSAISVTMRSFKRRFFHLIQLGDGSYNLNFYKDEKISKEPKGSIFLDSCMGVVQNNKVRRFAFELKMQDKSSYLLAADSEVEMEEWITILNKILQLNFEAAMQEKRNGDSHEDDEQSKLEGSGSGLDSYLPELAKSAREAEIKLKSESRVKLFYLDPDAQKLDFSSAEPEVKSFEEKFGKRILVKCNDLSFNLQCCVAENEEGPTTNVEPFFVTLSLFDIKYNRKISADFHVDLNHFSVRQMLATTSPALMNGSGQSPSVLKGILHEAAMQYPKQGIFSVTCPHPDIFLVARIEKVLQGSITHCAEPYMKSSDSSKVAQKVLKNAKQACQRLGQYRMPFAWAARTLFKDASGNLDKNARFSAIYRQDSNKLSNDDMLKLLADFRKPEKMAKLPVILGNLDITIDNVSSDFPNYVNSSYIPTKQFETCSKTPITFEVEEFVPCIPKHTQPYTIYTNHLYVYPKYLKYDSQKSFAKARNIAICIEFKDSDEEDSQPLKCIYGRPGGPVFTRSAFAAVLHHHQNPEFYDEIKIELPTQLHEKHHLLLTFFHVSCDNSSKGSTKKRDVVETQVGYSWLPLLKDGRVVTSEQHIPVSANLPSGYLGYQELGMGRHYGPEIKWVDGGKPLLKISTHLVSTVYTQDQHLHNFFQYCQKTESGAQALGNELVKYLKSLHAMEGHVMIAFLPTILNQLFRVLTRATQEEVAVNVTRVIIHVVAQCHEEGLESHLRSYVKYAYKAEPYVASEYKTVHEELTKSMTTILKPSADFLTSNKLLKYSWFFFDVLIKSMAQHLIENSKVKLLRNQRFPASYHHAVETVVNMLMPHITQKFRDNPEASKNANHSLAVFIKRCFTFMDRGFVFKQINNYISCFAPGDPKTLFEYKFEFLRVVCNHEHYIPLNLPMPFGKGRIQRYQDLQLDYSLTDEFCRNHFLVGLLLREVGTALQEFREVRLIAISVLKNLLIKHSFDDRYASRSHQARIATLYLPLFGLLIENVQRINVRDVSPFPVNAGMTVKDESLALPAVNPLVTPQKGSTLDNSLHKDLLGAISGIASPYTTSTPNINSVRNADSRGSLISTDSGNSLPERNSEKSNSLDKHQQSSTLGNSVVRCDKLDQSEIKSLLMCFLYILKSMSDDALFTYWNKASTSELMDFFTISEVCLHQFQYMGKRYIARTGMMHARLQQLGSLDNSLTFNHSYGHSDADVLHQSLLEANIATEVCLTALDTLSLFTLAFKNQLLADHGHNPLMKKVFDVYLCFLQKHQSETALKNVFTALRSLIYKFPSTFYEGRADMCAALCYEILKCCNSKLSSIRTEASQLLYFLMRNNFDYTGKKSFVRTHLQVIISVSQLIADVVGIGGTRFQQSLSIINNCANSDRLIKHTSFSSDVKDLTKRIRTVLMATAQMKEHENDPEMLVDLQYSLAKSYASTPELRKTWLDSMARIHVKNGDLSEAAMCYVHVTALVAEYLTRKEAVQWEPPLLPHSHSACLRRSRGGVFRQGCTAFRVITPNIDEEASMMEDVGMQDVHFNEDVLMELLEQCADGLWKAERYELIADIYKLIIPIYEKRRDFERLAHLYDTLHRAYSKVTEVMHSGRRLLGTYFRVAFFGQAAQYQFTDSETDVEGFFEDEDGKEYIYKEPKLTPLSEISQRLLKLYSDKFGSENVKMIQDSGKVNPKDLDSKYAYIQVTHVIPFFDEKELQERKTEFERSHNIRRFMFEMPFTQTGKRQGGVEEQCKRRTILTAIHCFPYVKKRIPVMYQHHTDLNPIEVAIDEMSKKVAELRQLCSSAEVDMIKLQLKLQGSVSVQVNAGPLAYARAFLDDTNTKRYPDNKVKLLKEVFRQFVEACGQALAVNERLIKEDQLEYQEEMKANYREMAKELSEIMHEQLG
UniProt Q9BZG8: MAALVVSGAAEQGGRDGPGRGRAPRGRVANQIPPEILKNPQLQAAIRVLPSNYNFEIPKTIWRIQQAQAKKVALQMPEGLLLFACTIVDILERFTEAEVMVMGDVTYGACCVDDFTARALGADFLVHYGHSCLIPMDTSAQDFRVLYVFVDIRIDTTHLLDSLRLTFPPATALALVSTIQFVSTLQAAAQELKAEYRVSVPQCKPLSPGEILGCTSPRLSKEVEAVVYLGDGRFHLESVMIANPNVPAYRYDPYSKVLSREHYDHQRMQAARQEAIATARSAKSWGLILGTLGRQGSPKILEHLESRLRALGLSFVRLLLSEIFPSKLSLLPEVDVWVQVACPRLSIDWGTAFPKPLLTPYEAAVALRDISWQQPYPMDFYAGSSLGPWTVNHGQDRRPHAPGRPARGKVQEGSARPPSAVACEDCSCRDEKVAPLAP
UniProt Q92785, whole entry, looked up: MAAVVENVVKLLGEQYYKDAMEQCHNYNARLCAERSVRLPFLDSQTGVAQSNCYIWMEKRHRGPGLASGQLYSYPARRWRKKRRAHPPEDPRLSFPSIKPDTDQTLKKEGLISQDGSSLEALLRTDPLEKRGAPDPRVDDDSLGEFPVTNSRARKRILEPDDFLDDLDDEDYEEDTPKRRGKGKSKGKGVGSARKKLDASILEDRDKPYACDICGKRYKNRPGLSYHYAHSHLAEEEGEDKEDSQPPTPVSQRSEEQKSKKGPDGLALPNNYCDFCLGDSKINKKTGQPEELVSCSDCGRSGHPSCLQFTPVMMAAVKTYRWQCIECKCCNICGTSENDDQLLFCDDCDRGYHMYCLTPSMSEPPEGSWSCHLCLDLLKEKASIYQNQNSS
UniProt Q5JSL3: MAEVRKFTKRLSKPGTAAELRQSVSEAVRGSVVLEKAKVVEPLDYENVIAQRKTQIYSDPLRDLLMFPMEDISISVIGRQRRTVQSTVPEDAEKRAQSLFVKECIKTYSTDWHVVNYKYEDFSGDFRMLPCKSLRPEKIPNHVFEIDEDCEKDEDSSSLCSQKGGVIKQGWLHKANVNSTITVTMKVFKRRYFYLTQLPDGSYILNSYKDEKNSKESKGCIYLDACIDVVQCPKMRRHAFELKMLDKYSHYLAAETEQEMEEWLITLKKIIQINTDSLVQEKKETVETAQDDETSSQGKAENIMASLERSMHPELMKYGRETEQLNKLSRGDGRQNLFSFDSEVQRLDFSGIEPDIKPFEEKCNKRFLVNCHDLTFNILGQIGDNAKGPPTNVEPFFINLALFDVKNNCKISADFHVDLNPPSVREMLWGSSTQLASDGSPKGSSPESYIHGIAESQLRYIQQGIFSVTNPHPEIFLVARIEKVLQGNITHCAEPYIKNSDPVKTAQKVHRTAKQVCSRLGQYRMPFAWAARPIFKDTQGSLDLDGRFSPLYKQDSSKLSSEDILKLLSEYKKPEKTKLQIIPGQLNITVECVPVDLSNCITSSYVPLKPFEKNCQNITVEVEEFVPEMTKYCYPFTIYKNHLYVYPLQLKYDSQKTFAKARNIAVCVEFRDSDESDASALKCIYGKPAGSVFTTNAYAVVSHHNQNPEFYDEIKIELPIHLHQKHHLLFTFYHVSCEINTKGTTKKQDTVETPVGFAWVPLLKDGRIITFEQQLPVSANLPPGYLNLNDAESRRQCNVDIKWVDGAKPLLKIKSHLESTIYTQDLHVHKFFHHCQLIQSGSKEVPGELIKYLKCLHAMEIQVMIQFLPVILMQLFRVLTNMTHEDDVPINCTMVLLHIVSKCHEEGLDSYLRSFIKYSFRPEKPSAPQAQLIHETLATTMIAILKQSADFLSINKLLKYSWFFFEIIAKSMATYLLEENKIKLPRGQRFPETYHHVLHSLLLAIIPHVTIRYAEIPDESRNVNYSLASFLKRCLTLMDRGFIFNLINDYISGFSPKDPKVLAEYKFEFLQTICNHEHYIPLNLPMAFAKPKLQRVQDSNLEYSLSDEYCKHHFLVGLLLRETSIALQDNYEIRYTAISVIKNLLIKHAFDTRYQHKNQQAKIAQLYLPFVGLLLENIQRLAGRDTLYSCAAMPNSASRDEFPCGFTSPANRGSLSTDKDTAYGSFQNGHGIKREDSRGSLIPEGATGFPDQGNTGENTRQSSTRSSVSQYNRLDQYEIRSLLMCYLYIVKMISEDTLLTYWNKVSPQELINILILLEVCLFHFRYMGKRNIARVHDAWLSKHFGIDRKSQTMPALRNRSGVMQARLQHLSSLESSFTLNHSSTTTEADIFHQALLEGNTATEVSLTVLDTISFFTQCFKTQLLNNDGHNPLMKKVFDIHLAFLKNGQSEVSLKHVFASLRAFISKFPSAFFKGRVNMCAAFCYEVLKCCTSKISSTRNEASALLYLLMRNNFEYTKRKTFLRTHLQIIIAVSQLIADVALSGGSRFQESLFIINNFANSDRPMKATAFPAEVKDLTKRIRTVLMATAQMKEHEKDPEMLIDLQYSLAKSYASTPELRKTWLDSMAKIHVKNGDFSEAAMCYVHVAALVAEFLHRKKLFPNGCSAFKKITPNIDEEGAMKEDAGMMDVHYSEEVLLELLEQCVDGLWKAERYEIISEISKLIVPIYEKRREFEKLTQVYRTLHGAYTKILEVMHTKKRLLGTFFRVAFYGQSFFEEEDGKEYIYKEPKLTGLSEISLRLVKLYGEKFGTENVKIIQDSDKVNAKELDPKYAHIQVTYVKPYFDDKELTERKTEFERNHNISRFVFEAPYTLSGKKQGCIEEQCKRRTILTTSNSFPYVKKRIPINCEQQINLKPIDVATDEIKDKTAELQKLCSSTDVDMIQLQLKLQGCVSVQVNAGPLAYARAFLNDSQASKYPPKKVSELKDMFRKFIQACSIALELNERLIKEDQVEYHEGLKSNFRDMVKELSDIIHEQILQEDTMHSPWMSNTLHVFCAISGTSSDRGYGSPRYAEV
UniProt O75937: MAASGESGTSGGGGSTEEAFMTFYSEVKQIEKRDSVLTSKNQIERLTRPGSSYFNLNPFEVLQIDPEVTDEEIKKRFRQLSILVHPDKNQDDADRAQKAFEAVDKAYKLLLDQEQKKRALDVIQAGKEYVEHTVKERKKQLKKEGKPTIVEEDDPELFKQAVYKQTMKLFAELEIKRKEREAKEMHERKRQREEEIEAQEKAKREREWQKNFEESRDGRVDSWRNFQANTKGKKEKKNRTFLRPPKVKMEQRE
UniProt Q13011: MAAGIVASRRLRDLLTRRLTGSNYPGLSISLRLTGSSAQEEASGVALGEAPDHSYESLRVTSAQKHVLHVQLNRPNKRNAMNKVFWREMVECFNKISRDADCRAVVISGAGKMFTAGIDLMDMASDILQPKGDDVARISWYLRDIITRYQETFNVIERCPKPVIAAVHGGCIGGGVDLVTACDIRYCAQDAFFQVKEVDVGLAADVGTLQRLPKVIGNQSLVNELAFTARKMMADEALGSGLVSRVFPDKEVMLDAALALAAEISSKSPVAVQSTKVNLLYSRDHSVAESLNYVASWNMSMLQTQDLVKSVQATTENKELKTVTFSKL

Legend:
Test in all cases: log2 fold change, soluble protein after heating vs DMSO (PISA); higher = thermal stabilisation; K562 cells, 10 uM, 30 min; active = over 0.2 and 3.5 SD of the protein, either way, in both replicates (recomputed)
bafetinib = compound: Cc1ccc(NC(=O)c2ccc(CN3CC[C@H](N(C)C)C3)c(C(F)(F)F)c2)cc1Nc1nccc(-c2cncnc2)n1 [bafetinib]
Method in brief: (§1)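 K562 cells (2×10^6 cells/mL) were treated with 10 μM compound for 30 min, and aliquots were heated for 3 min over 48°C-58°C. Pooled aliquots were extracted in PBS with 0.5% NP-40 at 4°C, and the supernatant after 21,000xg for 90 min was measured by TMTpro 16plex LC-MS/MS with channel sums equalised. Reported thermal stability, relative to control samples and from duplicates, is a log2 fold change.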

[1] = compound: Cc1cccc(CC(=O)N2CCc3c2ccc(-c2cn(C)c4ncnc(N)c24)c3F)n1
Method in brief: as §1

nilotinib = compound: Cc1cn(-c2cc(NC(=O)c3ccc(C)c(Nc4nccc(-c5cccnc5)n4)c3)cc(C(F)(F)F)c2)cn1 [nilotinib]
Method in brief: as §1

[2] = compound: Cc1nc(Nc2n[nH]c3c2CN(C(=O)N[C@H](CN(C)C)c2ccccc2)C3(C)C)c2sccc2n1
Method in brief: as §1

dasatinib = compound: Cc1nc(Nc2ncc(C(=O)Nc3c(C)cccc3Cl)s2)cc(N2CCN(CCO)CC2)n1 [dasatinib]
Method in brief: as §1

[3] = compound: Cc1ncc(-c2ccnc(Nc3ccc(S(C)(=O)=O)cc3)n2)n1C(C)C
Method in brief: as §1

[4] = compound: Cn1cc(-c2ccc3c(c2)CCN3C(=O)Cc2cccc(C(F)(F)F)c2)c2c(N)ncnc21
Method in brief: as §1

[5] = compound: Cn1cc(-c2ccc3nnc(C(F)(F)c4ccc5ncccc5c4)n3n2)cn1
Method in brief: as §1

tipifarnib = compound: Cn1cncc1[C@@](N)(c1ccc(Cl)cc1)c1ccc2c(c1)c(-c1cccc(Cl)c1)cc(=O)n2C [tipifarnib]
Method in brief: as §1

mubritinib = compound: FC(F)(F)c1ccc(/C=C/c2nc(COc3ccc(CCCCn4ccnn4)cc3)co2)cc1 [mubritinib]
Method in brief: as §1

[6] = compound: NC(=O)Nc1cc(-c2cccc(F)c2)sc1C(=O)N[C@H]1CCCNC1
Method in brief: as §1

[7] = compound: NC(=O)c1cnc(N[C@@H]2CCCC[C@@H]2N)nc1Nc1cccc(-n2nccn2)c1
Method in brief: as §1

[8] = compound: NC1(c2ccc(-c3nc4ccn5c(=O)[nH]nc5c4cc3-c3ccccc3)cc2)CCC1
Method in brief: as §1

[9] = compound: NCC(=O)Nc1ccc(-n2nc(C(F)(F)F)cc2-c2ccc3c(ccc4ccccc43)c2)cc1
Method in brief: as §1

entinostat = compound: Nc1ccccc1NC(=O)c1ccc(CNC(=O)OCc2cccnc2)cc1 [entinostat]
Method in brief: as §1

vorinostat = compound: O=C(CCCCCCC(=O)Nc1ccccc1)NO [vorinostat]
Method in brief: as §1

citarinostat = compound: O=C(CCCCCCNC(=O)c1cnc(N(c2ccccc2)c2ccccc2Cl)nc1)NO [citarinostat]
Method in brief: as §1

silmitasertib = compound: O=C(O)c1ccc2c(c1)nc(Nc1cccc(Cl)c1)c1ccncc12 [silmitasertib]
Method in brief: as §1

[10] = compound: O=C1NC(=O)C(c2cnc3ccccn23)=C1c1cn2c3c(cc(F)cc13)CN(C(=O)N1CCCCC1)CC2
Method in brief: as §1

[11] = compound: c1cc(OCCN2CCCCC2)cc(-c2n[nH]c3ccc(-c4nnc[nH]4)cc23)c1
Method in brief: as §1

Measured: log2 fold change

DNMT1 isoform 2 (UniProt P26358)
inactive: bafetinib -0.008 | [1] 0.016 | nilotinib 0.002 | [2] 0.002 | dasatinib -0.01 | [3] 0.005 | [4] 0.036 | [5] -0.004 | tipifarnib -0.009 | mubritinib 0.007 | [6] -0.004 | [7] -0.044 | [8] -0.004 | [9] -0.017 | entinostat -0.006 | vorinostat 0.043 | citarinostat 0.015 | silmitasertib -0.008 | [10] -0.031 | [11] -0.014

DSTN (UniProt P60981)
inactive: bafetinib -0.026 | [1] -0.013 | nilotinib 0.077 | [2] -0.022 | dasatinib 0.023 | [3] 0.012 | [4] 0.077 | [5] -0.008 | tipifarnib -0.038 | mubritinib 0.067 | [6] -0.087 | [7] -0.048 | [8] -0.121 | [9] -0.04 | entinostat -0.05 | vorinostat -0.008 | citarinostat -0.002 | silmitasertib 0.014 | [10] -0.025 | [11] -0.035

DOCK9 isoform 4 (UniProt Q9BZ29)
inactive: bafetinib 0.012 | [1] 0.113 | nilotinib -0.085 | [2] 0.03 | dasatinib -0.23 | [3] 0.007 | [4] -0.001 | [5] -0.025 | tipifarnib -0.092 | mubritinib 0.064 | [6] 0.113 | [7] -0.179 | [8] -0.029 | [9] -0.073 | entinostat 0.058 | vorinostat 0.003 | citarinostat 0.011 | silmitasertib -0.027 | [10] 0.056 | [11] 0.056

DPH1 (UniProt Q9BZG8)
inactive: bafetinib -0.021 | [1] 0.057 | nilotinib -0.03 | [2] -0.014 | dasatinib -0.032 | [3] -0.101 | [4] -0.02 | [5] 0.015 | tipifarnib -0.021 | mubritinib 0.008 | [6] 0 | [7] -0.031 | [8] -0.049 | [9] 0.106 | entinostat 0.005 | vorinostat 0.036 | citarinostat 0.023 | silmitasertib -0.08 | [10] -0.065 | [11] -0.016

DPF2 (UniProt Q92785)
inactive: bafetinib -0.042 | [1] 0.009 | nilotinib 0 | [2] -0.019 | dasatinib 0.054 | [3] -0.09 | [4] 0.007 | [5] -0.014 | tipifarnib 0.05 | mubritinib 0.033 | [6] -0.064 | [7] -0.09 | [8] -0.014 | [9] 0.024 | entinostat -0.061 | vorinostat 0.049 | citarinostat 0.054 | silmitasertib 0.022 | [10] -0.124 | [11] -0.02

DOCK11 (UniProt Q5JSL3)
inactive: bafetinib 0.004 | [1] 0.02 | nilotinib -0.003 | [2] 0.021 | dasatinib -0.151 | [3] 0.038 | [4] -0.024 | [5] 0.008 | tipifarnib -0.081 | mubritinib 0.119 | [6] -0.04 | [7] -0.052 | [8] -0.102 | [9] -0.083 | entinostat 0.053 | vorinostat 0.025 | citarinostat 0.066 | silmitasertib 0.071 | [10] 0.035 | [11] -0.047

DNAJC8 (UniProt O75937)
inactive: bafetinib 0 | [1] 0.043 | nilotinib -0.019 | [2] -0.032 | dasatinib -0.07 | [3] 0.052 | [4] -0.001 | [5] 0.003 | tipifarnib -0.016 | mubritinib 0 | [6] -0.008 | [7] -0.041 | [8] -0.043 | [9] -0.084 | entinostat 0.031 | vorinostat 0.009 | citarinostat 0.038 | silmitasertib 0.022 | [10] -0.053 | [11] -0.033

ECH1 (UniProt Q13011)
inactive: bafetinib 0.318 | [1] -0.003 | nilotinib -0.024 | [2] 0.013 | dasatinib 0.249 | [3] -0.033 | [4] 0.134 | [5] 0.039 | tipifarnib -0.056 | mubritinib -0.011 | [6] 0 | [7] -0.101 | [8] 0.295 | [9] -0.078 | entinostat -0.025 | vorinostat -0.015 | citarinostat 0.002 | silmitasertib -0.072 | [10] -0.076 | [11] 0.038
